According to the supplement of paper PMC10849652:
Some of the results follow.

The chains behind the UniProt entries cited, without tags or fusion partners. Where a name states a change or a piece, a line headed by the entry shows the natural chain unless it says otherwise.
UniProt P18031: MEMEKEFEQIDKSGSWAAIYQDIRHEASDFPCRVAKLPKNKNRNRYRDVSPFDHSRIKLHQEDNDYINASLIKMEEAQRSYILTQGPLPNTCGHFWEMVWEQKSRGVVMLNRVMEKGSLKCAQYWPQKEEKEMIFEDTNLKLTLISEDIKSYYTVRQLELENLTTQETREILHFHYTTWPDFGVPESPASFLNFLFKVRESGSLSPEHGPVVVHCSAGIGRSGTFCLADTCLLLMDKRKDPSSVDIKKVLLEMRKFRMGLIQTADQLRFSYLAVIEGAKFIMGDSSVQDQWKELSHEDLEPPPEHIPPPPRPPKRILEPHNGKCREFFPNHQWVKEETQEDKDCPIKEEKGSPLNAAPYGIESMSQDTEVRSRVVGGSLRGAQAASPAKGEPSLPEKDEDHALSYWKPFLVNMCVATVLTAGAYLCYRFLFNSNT
UniProt P26599: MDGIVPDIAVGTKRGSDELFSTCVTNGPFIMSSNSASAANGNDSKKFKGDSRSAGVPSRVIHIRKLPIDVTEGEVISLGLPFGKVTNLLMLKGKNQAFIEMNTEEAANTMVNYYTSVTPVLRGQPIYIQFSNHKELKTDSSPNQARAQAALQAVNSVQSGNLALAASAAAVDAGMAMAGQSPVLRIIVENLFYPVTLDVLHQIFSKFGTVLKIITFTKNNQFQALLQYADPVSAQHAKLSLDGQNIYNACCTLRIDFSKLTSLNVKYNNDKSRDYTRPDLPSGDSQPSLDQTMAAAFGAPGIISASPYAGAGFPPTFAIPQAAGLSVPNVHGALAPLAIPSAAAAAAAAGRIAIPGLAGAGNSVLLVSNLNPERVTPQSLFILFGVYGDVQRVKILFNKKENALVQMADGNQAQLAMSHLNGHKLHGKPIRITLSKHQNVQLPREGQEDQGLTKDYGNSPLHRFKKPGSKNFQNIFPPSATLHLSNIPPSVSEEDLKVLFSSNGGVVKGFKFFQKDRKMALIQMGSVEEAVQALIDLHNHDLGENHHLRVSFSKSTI
UniProt Q9BXR0: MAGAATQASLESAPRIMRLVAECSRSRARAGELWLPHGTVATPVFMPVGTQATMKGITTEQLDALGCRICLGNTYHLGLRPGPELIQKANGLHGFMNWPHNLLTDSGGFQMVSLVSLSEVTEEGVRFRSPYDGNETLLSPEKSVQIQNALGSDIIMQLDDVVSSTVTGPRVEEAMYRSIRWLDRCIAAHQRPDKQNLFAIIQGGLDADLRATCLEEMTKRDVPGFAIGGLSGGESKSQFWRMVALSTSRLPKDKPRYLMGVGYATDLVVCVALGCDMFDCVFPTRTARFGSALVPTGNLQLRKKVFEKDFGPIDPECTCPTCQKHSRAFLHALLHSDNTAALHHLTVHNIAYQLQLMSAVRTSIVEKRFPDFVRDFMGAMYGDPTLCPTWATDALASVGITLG
UniProt Q08623: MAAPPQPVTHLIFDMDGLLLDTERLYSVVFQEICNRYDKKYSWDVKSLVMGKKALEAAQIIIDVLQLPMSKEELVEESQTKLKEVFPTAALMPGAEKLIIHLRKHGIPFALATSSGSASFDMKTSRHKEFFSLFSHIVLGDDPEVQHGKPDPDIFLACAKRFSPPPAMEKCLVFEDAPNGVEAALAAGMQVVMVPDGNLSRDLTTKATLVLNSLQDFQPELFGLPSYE
UniProt P61289: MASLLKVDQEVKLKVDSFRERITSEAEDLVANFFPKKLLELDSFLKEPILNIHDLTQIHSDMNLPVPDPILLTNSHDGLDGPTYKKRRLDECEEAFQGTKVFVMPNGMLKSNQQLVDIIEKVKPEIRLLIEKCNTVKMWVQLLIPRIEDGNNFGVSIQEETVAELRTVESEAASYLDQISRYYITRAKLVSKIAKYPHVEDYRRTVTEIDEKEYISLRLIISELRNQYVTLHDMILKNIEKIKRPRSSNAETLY
UniProt Q96BW5: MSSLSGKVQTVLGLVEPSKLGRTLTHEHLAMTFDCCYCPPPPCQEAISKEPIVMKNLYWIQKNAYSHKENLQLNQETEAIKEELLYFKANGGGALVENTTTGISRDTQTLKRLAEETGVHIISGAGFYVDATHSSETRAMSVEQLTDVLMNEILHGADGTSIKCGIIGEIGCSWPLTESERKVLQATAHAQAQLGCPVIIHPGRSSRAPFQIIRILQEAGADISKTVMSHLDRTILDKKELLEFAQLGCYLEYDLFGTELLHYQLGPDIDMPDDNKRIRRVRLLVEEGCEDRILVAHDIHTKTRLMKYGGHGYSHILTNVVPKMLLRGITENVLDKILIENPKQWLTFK
UniProt Q15274: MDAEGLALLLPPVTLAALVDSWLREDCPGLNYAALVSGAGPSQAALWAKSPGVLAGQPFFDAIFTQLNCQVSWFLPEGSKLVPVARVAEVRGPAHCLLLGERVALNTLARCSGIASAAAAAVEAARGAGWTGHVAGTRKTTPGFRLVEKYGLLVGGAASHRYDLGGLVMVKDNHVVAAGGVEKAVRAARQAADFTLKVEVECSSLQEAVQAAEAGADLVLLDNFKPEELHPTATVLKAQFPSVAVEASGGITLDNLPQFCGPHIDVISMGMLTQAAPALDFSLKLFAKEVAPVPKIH
UniProt Q15269: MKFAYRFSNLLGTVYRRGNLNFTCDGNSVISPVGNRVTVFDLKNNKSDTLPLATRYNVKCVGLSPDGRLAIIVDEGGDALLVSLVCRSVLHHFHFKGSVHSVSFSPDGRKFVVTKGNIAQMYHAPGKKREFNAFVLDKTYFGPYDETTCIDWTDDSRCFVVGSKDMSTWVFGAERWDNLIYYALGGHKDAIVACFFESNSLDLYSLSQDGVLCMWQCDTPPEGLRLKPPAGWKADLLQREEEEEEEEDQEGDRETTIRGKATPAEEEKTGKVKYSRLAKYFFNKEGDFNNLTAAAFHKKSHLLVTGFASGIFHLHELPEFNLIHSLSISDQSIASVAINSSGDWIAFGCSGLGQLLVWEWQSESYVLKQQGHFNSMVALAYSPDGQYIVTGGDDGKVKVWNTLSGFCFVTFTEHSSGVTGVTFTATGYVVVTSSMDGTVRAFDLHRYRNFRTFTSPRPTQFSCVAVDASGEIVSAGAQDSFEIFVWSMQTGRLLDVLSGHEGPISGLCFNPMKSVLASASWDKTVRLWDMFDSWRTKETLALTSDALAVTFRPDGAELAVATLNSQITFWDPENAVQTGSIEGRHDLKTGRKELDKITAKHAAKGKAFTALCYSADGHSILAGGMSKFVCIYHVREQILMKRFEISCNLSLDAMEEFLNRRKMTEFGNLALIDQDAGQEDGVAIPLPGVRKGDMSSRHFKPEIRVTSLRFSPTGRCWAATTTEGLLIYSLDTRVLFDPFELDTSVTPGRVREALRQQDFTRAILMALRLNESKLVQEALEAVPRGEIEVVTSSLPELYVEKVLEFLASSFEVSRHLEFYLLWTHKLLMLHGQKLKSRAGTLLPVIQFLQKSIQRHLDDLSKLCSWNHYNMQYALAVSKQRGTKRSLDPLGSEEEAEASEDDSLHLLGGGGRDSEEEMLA
UniProt Q99952: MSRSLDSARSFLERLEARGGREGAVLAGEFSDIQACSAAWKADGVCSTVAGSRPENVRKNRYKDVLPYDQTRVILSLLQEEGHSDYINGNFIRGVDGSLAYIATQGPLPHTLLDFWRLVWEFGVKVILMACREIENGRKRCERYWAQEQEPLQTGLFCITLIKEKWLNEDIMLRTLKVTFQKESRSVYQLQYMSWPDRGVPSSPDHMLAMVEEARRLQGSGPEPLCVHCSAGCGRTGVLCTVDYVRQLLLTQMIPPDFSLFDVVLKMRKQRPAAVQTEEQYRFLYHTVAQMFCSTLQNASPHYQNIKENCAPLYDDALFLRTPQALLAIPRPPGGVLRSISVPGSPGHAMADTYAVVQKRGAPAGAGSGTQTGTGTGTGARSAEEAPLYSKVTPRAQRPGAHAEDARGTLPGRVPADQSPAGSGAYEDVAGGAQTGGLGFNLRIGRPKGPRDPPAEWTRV
UniProt Q13308: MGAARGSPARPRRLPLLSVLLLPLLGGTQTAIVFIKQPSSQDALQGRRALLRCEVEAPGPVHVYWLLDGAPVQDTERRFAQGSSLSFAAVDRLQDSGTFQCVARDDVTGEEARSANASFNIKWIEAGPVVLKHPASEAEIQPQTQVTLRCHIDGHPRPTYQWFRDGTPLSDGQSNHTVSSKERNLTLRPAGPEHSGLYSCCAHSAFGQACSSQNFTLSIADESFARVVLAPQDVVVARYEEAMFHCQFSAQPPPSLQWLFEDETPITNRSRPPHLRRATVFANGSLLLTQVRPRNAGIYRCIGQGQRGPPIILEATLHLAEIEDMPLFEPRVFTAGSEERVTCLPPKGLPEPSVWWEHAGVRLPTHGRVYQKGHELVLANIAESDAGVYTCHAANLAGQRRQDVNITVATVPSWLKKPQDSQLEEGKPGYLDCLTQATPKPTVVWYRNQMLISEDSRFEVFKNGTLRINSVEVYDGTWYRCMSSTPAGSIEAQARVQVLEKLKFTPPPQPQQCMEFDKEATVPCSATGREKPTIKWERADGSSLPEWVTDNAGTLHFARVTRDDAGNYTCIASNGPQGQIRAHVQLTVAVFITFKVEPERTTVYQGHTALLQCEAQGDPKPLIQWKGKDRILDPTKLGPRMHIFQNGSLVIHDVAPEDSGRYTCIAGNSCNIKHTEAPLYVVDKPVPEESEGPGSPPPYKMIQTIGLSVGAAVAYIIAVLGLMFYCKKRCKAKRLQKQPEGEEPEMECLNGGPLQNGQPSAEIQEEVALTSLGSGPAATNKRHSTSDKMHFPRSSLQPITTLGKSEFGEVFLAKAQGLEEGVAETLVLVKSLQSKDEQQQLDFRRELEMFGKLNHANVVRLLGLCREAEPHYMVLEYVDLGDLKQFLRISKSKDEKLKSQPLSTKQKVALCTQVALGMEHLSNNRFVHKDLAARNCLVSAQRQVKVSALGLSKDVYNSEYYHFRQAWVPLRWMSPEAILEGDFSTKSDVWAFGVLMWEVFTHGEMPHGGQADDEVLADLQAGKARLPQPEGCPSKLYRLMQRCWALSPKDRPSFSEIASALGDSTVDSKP
UniProt Q96QR8: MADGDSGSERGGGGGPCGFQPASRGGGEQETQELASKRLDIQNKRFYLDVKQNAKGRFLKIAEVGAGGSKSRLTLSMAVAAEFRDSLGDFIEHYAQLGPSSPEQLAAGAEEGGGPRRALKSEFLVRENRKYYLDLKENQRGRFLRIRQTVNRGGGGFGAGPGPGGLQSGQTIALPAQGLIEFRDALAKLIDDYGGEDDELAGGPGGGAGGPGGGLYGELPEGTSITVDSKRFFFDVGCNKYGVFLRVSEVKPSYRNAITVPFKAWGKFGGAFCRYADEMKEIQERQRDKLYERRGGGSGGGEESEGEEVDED
UniProt P17706: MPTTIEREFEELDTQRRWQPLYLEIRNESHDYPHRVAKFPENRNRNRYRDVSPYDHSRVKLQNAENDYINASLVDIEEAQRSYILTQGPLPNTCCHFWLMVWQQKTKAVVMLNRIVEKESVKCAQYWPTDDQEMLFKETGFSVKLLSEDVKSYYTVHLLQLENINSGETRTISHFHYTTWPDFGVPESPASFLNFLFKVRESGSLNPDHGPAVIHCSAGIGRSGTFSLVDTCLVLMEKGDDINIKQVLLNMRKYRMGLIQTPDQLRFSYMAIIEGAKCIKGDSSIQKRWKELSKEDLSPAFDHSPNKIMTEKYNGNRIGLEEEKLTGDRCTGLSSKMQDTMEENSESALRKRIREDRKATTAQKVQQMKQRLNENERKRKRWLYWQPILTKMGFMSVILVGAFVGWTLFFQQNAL
UniProt P18433: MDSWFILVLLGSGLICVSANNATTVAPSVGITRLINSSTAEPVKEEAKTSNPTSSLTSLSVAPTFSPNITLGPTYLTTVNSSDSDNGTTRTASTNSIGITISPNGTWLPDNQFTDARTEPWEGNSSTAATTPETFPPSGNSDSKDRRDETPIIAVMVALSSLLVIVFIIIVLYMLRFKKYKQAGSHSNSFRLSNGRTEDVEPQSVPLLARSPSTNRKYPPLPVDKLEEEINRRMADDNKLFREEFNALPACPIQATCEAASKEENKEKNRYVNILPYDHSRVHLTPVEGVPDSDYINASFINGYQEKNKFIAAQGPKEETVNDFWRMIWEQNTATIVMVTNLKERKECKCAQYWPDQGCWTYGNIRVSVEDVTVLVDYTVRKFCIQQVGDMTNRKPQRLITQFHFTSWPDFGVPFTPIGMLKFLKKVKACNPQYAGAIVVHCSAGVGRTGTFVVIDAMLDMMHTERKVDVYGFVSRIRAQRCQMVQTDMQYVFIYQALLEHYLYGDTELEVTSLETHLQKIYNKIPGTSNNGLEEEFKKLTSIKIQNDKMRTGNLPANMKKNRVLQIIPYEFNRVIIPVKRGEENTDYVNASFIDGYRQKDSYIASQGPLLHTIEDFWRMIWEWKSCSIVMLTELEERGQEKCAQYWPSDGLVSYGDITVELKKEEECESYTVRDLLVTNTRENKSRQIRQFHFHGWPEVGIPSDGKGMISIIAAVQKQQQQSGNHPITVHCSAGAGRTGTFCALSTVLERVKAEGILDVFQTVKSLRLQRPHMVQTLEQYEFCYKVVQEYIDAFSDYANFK

Compound: c1cn2cc(-c3ccc4cn[nH]c4c3)nc(Nc3ccc(N4CCOCC4)cc3)c2n1 [entospletinib]
Assay: log2 fold change, soluble protein after heating vs DMSO (PISA); higher = thermal stabilisation; K562 cells, 10 uM, 30 min; active = over 0.2 and 3.5 SD of the protein, either way, in both replicates (recomputed)
Summary of the method: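 K562 cells at 2×10^6 cells/mL were treated for 30 min with 10 μM compound, and aliquots were heated for 3 min over 48°C-58°C before pooling. Extraction used PBS with 0.5% NP-40 at 4°C, and soluble protein was the supernatant after 21,000xg for 90 min, measured by TMTpro 16plex LC-MS/MS with channel sums equalised. Thermal stability values, relative to control samples and from duplicates, are log2 fold changes.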

log2 fold change, inactive:
PTPN1 (UniProt P18031) -0.008
PSMB10 (UniProt P40306) -0.004
PSMB5 isoform 3 (UniProt P28074) 0.028
PTBP1 (UniProt P26599) 0.062
PSMD4 (UniProt P55036) 0.027
PYCR1 (UniProt J3QKT4) -0.222
PSMG1 (UniProt O95456) -0.041
QTRT1 (UniProt Q9BXR0) -0.001
PSME2 (UniProt Q9UL46) 0
PUDP isoform 4 (UniProt Q08623) 0.032
PUSL1 (UniProt Q8N0Z8) -0.012
PSME3 isoform 2 (UniProt P61289) 0.011
PSMD4 (UniProt Q5VWC4) -0.257
PTER (UniProt Q96BW5) 0.013
PTDSS2 (UniProt Q9BVG9) -0.002
QPRT (UniProt Q15274) -0.003
PXMP2 (UniProt Q9NR77) -0.018
PWP2 (UniProt Q15269) 0.044
PTPN11 isoform 1 (UniProt Q06124) -0.002
PTPN18 (UniProt Q99952) 0.001
PTK7 isoform 6 (UniProt Q13308) -0.034
PYCARD (UniProt Q9ULZ3) 0.017
PSMA1 isoform 2 (UniProt P25786) 0.046
PURB (UniProt Q96QR8) 0.191
PSMA8 (UniProt Q8TAA3) 0.04
PWP1 (UniProt Q13610) 0.149
PSMB2 (UniProt P49721) -0.011
PSEN1 (UniProt P49768) 0.033
PUM2 (UniProt Q8TB72) 0.05
PUS3 (UniProt Q9BZE2) -0.047
PTPN2 (UniProt P17706) -0.004
PTPRA (UniProt P18433) -0.014

Random excerpt: 3 entries already listed
log2 fold change, inactive:
PWP2 (UniProt Q15269) 0.044
PUSL1 (UniProt Q8N0Z8) -0.012
PSEN1 (UniProt P49768) 0.033
